Measured data: PubChem BioAssay AID504786 (Drosophila RNAi Screening Center, 2011)

- Aim: 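Fly genes required for HIF-dependent transcription when hypoxia is mimicked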 (primary screen)
- Cells: Drosophila S2 cells with a stable HIF luciferase reporter
- Reagent: long dsRNA against Drosophila genes, about 0.2 µg dsRNA per well of a 384-well plate
- Duration: three days of knock-down, then 20 h of DFO before reading
- Treatment: desferrioxamine (DFO) at 100 µM, an iron chelator that mimics hypoxia, for 20 h
- Measured: 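Firefly luciferase driven by the mouse ldh-a hypoxia-response element, measured after 20 h of 100 µM DFO; z-scores per plate, higher means more signal lost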
- Direction: z-score: higher = stronger loss of HIF reporter signal
The screen tested about 21,000 reagents; this is a random part of those that have a named target and a result. 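Primary screen; positive scores mean lost reporter signal, so the sign may be inverted from the usual convention.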 Not all columns of the deposit are shown. Reagent sequences are not shown.

CG14669 [DRSC12065] | z-score, replicate 1: 2.1
CG14669 [DRSC12067] | z-score, replicate 1: -0.3
CG14669 [DRSC12068] | z-score, replicate 1: -0.4
CG14669 [DRSC12255] | z-score, replicate 1: -0.5
Sec24AB [DRSC06478] | z-score, replicate 1: -0.4
mbm [DRSC00319] | z-score, replicate 1: -0.3
Mst57Dc [DRSC16745] | z-score, replicate 1: 0
Arc42 [DRSC14340] | z-score, replicate 1: -1.2
Arc42 [DRSC15627] | z-score, replicate 1: -1.2
Cdk8 [DRSC11113] | z-score, replicate 1: -0.1
CG18180 [DRSC10304] | z-score, replicate 1: -0.3
Mst87F [DRSC16747] | z-score, replicate 1: -0.3
Sr-CIV [DRSC00575] | z-score, replicate 1: -0.3
CG31924 [DRSC00689] | z-score, replicate 1: -0.1
Arglu1 [DRSC02909] | z-score, replicate 1: -0.1
uif [DRSC00963] | z-score, replicate 1: 0.4
uif [DRSC03427] | z-score, replicate 1: -0.4
Hex-t1 [DRSC16701] | z-score, replicate 1: -0.3
Fer3 [DRSC16133] | z-score, replicate 1: -0.4
OtopLa [DRSC17787] | z-score, replicate 1: -0.3
OtopLa [DRSC18133] | z-score, replicate 1: -0.2
Gga [DRSC18260] | z-score, replicate 1: -0.3
CG15366 (retired record) [DRSC18039] | z-score, replicate 1: 0.1
CG11313 [DRSC14295] | z-score, replicate 1: -0.3
CG42748 [DRSC03712] | z-score, replicate 1: -0.1
CG42748 [DRSC03713] | z-score, replicate 1: -0.2
CG42748 [DRSC03734] | z-score, replicate 1: -0.2
cv-d [DRSC16522] | z-score, replicate 1: -0.2
cv-d [DRSC16524] | z-score, replicate 1: -0.2
cv-d [DRSC16526] | z-score, replicate 1: -0.3
karr [DRSC20681] | z-score, replicate 1: -0.1
CG13806 [DRSC08341] | z-score, replicate 1: -0.1
cnc [DRSC14676] | z-score, replicate 1: -0.4
cnc [DRSC15289] | z-score, replicate 1: -0.1
cnc [DRSC15600] | z-score, replicate 1: -0.3
cnc [DRSC15601] | z-score, replicate 1: -0.3
CG30403 [DRSC03889] | z-score, replicate 1: -0.8
SuUR [DRSC11292] | z-score, replicate 1: -0.3
kek2 [DRSC03552] | z-score, replicate 1: -0.2
CG13026 [DRSC09906] | z-score, replicate 1: -0.3
Cyp6d2 [DRSC04606] | z-score, replicate 1: -0.3
XNP [DRSC15594] | z-score, replicate 1: -0.1
Debcl [DRSC04965] | z-score, replicate 1: -0.3
CG14958 [DRSC08417] | z-score, replicate 1: 0.4
PhKgamma [DRSC20268] | z-score, replicate 1: -0.4
Uros2 [DRSC16505] | z-score, replicate 1: -0.1
d4 [DRSC04881] | z-score, replicate 1: -0.2
SdhAL [DRSC10539] | z-score, replicate 1: -0.2
Kr-h2 [DRSC03356] | z-score, replicate 1: -0.3
Scm [DRSC16853] | z-score, replicate 1: -0.4
Srg1 [DRSC14640] | z-score, replicate 1: -0.1
